According to publication doi:10.1101/2024.08.04.605933:
Results are given in words; binding and its absence hold for the method and conditions named. Some binding calls cover weakened binding; strength is not graded here. Sequences can lack the tags named with a protein.

Amino acid sequences for entries named in this document (tags omitted).
UniProt Q07812: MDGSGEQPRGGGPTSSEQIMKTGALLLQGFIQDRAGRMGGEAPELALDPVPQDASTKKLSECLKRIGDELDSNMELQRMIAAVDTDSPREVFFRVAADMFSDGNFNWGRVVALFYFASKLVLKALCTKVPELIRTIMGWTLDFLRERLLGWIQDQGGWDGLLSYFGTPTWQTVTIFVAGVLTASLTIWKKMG

Target: T1, voltage dependent anion channel 2 (VDAC2) (human (endogenous in HeLa)) (UniProt P45880)
T1 sequence: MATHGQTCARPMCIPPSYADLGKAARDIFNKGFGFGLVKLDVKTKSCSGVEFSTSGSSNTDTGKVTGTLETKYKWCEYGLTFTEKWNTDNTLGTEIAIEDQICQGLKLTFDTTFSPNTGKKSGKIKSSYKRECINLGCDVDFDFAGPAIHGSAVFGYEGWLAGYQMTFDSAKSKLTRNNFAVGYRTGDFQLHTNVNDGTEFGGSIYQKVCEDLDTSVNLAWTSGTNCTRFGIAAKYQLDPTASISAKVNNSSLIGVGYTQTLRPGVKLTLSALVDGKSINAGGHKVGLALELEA
Experiment: native gel or EMSA

binding: binds
Substance: BCL-2-associated X protein (BAX) (from UniProt Q07812 1-192)
